Measurements published in patent US20240287128 (published 2024).
Plain letter strings leave the end groups untold.

Assay: general procedure: Fmoc solid-phase peptide synthesis; Rink Amide Tentagel resin
Details: whole synthesis, 220 nm

| Sequence | crude purity (method not given) (run 1) | crude purity (method not given) |
| --- | --- | --- |
| KLLQDILDA | above 97% | – |
| MARADONA | – | above 80% |
